# The list shows a part of the results.
# Sequences of proteins named here, by UniProt entry; tags and fusion partners are left off. A change or cut given only in a name is not applied to a line headed by its entry.
# UniProt Q9Y5V0: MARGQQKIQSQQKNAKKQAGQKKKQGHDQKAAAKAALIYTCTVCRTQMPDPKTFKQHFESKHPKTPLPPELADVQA
# UniProt O43149: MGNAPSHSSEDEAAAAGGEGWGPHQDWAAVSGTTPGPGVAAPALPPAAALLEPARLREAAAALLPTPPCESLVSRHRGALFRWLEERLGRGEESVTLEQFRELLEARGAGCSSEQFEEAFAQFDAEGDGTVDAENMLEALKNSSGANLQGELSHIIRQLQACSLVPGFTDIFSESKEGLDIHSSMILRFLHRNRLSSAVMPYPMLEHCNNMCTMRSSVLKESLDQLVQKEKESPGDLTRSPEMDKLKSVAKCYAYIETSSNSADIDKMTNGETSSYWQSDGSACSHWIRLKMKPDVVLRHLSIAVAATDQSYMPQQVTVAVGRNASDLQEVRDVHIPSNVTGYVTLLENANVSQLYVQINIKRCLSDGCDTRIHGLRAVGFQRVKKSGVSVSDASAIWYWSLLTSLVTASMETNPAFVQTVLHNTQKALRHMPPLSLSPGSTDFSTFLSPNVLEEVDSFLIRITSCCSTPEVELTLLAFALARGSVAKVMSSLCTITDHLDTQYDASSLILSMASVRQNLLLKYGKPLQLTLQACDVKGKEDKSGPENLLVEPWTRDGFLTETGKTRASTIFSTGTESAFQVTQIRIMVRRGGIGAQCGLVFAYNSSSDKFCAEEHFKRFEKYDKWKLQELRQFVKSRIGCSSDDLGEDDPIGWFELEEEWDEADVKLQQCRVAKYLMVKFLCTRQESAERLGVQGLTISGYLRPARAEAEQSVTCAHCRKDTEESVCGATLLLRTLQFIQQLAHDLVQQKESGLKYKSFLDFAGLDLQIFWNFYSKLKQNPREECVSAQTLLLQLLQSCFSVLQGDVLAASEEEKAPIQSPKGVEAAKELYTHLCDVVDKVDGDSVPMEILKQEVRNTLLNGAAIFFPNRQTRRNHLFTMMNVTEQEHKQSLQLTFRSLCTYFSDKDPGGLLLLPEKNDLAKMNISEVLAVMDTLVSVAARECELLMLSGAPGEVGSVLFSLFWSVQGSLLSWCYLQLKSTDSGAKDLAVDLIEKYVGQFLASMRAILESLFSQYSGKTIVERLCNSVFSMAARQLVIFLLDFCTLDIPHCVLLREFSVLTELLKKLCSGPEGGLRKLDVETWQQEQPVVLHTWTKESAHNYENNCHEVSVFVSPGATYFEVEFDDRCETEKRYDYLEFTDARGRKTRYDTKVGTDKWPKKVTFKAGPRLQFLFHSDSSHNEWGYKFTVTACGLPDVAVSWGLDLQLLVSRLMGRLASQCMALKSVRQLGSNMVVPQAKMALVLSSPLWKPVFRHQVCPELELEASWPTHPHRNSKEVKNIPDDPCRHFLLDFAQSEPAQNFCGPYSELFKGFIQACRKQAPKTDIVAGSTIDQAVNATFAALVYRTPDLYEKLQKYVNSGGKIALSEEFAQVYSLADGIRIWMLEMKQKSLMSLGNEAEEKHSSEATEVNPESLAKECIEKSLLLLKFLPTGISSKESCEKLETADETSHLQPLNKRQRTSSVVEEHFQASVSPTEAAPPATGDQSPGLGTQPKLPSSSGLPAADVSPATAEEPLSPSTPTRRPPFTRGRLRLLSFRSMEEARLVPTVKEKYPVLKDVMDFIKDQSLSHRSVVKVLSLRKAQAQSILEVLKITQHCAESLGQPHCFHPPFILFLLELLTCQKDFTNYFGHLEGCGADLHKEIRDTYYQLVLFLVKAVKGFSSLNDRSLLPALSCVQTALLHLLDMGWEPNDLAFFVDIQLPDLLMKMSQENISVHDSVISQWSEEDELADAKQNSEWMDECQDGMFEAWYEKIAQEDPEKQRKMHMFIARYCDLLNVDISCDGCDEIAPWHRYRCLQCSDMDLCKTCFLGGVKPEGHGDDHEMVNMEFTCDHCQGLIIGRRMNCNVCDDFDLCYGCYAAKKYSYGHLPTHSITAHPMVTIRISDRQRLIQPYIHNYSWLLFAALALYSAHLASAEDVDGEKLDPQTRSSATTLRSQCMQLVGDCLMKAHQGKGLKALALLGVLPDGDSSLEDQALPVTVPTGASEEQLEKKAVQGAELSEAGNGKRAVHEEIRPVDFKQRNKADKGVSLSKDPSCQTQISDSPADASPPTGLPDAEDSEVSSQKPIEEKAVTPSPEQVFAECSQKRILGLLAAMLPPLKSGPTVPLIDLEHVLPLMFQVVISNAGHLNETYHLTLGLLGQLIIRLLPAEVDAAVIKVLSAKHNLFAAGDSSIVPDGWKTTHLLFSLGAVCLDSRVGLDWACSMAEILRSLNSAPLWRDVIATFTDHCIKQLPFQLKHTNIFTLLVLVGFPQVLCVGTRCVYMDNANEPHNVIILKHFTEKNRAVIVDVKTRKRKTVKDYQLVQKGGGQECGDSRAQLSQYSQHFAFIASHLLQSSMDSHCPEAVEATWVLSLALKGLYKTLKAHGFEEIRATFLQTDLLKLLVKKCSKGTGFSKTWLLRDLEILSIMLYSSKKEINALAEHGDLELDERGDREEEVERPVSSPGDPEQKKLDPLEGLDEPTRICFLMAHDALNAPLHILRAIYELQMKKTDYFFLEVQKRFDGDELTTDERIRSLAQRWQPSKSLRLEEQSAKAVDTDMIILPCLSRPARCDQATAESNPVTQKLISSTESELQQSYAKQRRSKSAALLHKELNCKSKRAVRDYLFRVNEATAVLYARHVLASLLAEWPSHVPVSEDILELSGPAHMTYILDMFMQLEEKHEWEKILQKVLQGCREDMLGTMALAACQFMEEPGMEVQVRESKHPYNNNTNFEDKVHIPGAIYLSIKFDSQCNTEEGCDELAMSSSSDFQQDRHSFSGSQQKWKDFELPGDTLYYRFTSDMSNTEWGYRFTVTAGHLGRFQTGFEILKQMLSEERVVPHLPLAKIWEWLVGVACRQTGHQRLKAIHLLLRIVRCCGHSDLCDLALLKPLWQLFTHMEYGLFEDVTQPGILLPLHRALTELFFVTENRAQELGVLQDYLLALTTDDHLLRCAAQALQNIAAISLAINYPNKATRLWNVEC
# UniProt Q9NWK9: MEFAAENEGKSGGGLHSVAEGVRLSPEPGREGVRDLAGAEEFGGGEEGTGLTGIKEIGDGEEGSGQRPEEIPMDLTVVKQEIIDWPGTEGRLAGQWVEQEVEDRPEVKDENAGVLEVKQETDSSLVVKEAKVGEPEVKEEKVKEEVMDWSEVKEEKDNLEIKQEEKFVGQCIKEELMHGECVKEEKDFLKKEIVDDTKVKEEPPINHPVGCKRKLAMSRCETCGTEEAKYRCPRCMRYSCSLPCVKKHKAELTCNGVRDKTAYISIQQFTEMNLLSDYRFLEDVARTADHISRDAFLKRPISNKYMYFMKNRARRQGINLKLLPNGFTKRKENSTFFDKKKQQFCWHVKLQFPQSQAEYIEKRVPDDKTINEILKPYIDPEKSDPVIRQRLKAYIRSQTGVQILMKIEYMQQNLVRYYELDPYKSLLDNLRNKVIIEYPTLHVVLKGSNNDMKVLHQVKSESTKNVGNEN
# UniProt Q8NHG8: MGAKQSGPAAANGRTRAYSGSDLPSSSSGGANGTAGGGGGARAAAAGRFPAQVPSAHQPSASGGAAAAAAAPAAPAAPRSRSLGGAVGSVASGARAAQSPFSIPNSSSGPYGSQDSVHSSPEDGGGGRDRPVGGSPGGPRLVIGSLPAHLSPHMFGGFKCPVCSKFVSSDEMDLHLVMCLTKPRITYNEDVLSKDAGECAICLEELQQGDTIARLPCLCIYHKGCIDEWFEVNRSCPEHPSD
# UniProt Q9H5H4: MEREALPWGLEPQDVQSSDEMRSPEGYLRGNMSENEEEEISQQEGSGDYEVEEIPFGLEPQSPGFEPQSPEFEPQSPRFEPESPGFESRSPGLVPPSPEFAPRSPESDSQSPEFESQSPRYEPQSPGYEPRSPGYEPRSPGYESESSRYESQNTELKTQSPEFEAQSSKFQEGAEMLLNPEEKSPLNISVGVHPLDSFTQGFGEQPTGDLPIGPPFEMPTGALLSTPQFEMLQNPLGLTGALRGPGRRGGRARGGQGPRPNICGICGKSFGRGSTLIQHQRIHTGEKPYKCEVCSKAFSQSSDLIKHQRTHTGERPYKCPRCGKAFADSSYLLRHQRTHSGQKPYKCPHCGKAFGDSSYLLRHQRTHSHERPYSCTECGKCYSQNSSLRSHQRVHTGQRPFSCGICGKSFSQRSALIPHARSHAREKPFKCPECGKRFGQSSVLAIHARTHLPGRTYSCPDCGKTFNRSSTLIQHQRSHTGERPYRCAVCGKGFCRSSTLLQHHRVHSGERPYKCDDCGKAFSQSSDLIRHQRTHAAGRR
# UniProt Q9H900: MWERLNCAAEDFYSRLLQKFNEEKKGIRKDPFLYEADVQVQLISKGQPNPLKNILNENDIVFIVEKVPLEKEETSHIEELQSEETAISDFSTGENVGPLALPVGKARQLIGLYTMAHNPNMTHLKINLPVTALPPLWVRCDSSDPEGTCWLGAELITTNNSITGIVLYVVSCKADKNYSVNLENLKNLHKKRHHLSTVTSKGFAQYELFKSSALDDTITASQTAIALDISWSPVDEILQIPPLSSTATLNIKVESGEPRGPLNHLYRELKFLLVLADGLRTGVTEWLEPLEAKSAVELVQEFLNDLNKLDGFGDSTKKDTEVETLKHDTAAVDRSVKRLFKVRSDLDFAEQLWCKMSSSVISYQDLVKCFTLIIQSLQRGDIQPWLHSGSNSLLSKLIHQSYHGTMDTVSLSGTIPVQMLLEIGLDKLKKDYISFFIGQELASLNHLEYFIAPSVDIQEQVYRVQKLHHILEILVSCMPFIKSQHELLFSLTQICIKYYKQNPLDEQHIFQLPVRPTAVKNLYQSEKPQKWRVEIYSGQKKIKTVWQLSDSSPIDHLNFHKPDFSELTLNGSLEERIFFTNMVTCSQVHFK
# UniProt Q96NB3: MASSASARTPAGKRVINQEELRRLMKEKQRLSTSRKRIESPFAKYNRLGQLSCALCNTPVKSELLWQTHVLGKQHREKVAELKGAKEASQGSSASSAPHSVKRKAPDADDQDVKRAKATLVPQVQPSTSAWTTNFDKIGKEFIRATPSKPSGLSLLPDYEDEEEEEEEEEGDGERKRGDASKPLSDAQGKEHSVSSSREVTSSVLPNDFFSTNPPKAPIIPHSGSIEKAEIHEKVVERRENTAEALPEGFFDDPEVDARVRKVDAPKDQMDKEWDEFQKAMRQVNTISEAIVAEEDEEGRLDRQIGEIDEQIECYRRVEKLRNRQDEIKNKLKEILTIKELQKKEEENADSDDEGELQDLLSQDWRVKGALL
# UniProt Q969S3: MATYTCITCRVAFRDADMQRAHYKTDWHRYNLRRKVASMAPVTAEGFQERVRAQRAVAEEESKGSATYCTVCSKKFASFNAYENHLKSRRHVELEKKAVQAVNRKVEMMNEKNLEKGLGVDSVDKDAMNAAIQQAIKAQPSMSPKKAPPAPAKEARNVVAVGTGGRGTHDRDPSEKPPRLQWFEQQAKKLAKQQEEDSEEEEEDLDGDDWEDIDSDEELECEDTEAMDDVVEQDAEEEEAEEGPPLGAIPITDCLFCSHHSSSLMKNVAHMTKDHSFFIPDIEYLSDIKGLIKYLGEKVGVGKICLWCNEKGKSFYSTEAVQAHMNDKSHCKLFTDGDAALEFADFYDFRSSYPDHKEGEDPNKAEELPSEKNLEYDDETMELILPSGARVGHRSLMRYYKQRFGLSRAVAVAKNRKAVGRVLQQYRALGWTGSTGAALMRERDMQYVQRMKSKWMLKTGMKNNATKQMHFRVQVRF
# UniProt Q9UEG4: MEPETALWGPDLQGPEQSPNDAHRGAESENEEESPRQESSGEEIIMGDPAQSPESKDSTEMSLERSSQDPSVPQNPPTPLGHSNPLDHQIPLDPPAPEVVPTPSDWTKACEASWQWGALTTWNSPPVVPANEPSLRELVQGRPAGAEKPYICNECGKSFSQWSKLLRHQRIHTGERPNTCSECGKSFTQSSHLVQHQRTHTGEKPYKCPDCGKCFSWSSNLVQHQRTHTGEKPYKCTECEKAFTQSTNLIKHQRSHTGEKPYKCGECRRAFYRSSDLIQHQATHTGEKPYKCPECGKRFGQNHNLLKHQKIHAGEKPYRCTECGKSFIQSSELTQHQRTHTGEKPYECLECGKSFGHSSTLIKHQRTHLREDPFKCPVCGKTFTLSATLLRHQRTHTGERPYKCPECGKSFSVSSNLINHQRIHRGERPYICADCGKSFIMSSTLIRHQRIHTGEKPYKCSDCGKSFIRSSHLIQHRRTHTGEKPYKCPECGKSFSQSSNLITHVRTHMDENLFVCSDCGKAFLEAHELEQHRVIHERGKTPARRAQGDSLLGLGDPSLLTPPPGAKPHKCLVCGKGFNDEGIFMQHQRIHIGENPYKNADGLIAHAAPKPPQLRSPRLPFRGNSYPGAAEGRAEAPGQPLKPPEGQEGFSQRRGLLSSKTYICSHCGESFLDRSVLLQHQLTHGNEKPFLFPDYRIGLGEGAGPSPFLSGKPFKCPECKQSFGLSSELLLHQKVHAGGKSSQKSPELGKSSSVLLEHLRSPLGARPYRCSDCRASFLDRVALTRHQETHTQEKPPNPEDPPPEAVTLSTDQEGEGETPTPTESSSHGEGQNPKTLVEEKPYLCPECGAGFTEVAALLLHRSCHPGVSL
# Compound: CC1=C2C(=CC=C1)N=C(N(C2=O)C3=CC=CC=C3C)CN4C=NC5=C(N=CN=C54)N
# Assay: log2 fold change, soluble protein after heating vs DMSO (PISA); higher = thermal stabilisation; K562 cells, 10 uM, 30 min; active = over 0.2 and 3.5 SD of the protein, either way, in both replicates (recomputed)
# In short: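 Values are thermal stability changes relative to control samples and are taken from duplicates. They are stated as log2 fold changes. Before quantification by TMTpro 16plex LC-MS/MS with equalised channel sums, K562 cells at 2×10^6 cells/mL were treated with 10 μM compound for 30 min, heated in aliquots for 3 min across 48°C-58°C, pooled, extracted in PBS with 0.5% NP-40 at 4°C, and centrifuged at 21,000xg for 90 min to give the soluble supernatant.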
row,Target,log2 fold change
1,ZNF384 (UniProt Q8TF68),inactive: -0.087
2,ZNF414 isoform 2 (UniProt Q96IQ9),inactive: -0.198
3,ZNF579 (UniProt Q8NAF0),inactive: -0.025
4,ZNF706 (UniProt Q9Y5V0),inactive: -0.057
5,ZNF24 (UniProt P17028),inactive: -0.05
6,ZNF609 (UniProt O15014),inactive: 0.148
7,ZZEF1 (UniProt O43149),inactive: 0.047
8,ZNF511 isoform 1 (UniProt Q8NB15),inactive: 0.064
9,ZNHIT3 (UniProt Q15649),inactive: -0.012
10,ZNF672 (UniProt Q499Z4),inactive: -0.049
11,ZNF428 (UniProt M0QXZ5),inactive: 0.019
12,ZNF618 (UniProt Q5T7W0),inactive: 0.078
13,ZWINT (UniProt O95229),inactive: 0.079
14,ZYX (UniProt Q15942),inactive: -0.051
15,ZNRD2 (UniProt O60232),inactive: 0.02
16,ZYG11B (UniProt Q9C0D3),inactive: 0.011
17,ZNHIT6 (UniProt Q9NWK9),inactive: -0.158
18,ZNRF2 (UniProt Q8NHG8),inactive: -0.027
19,ZW10 (UniProt O43264),inactive: 0.018

row,Target,log2 fold change
1,ZNF768 (UniProt Q9H5H4),inactive: -0.132
2,ZNF385A (UniProt Q96PM9),inactive: 0.074
3,ZNF593 (UniProt O00488),inactive: -0.206
4,ZNF691 (UniProt Q5VV52),inactive: 0.112
5,ZNF330 (UniProt Q9Y3S2),inactive: 0.004
6,ZNF346 (UniProt Q9UL40),inactive: -0.099
7,ZNF277 (UniProt Q9NRM2),inactive: -0.007
8,ZNRD1 (UniProt Q9P1U0),inactive: -0.181
9,ZRANB2 (UniProt O95218),inactive: -0.07
10,ZPR1 (UniProt O75312),inactive: 0.027
11,ZNF787 (UniProt Q6DD87),inactive: -0.144
12,ZNF638 (UniProt Q14966),inactive: -0.096
13,ZWILCH (UniProt Q9H900),inactive: 0.063
14,ZNF830 (UniProt Q96NB3),inactive: 0.006
15,ZNF622 (UniProt Q969S3),inactive: 0.073
16,ZNRF1 isoform 2 (UniProt Q8ND25),inactive: -0.017
17,ZNF629 (UniProt Q9UEG4),inactive: -0.242
18,ZNF598 (UniProt Q86UK7),inactive: 0.054

# Some of the entries so far, with bars between the fields.
row | Target | log2 fold change
5 | ZNF330 (UniProt Q9Y3S2) | inactive: 0.004
6 | ZNF346 (UniProt Q9UL40) | inactive: -0.099
7 | ZNF277 (UniProt Q9NRM2) | inactive: -0.007
